The values that follow come from PubChem BioAssay AID264 (DTP/NCI, 2004).

The list shows only some results of the screen, not a fair sample: it gathers tests that were run many times, whatever their T/C, doses with no T/C, and many T/C values between a quarter and a half above the control. Further doses and runs are listed elsewhere. T/C: endpoint of the treated group in % of that of the vehicle group. Schedule codes are those of the source, taken here to give the interval after Q, in days (D) or hours (H), and the number of doses after X. Some doses were run more than once; the values are given in rising order. Some T/C values are followed by the survivors on the day toxicity was checked, most often the fifth; without a count, all were alive then. Some doses have a count of surviving animals in place of a T/C: the source holds a T/C of zero for them, seemingly a mark for toxic or unscored doses. Survivors were counted at the toxicity check, usually on the fifth day, unless a day is given; later deaths do not show. Bridge positions count the residues as written; N and C are the ends. Square brackets hold non-standard residues; d marks the D form. Peptide text beside a SMILES is read from it. I, II: the chains in the order shown. * marks the point of attachment. Quinoxaline2carbonyl = O=C(c1cnc2ccccc2n1)*; NMeV = CN[CH](C(=O)O)C(C)C; NMeC = CN[CH](CS)C(=O)O

For the assay, the system named is nude mice, LX-1 lung xenograft intrarenal, tumor weight T/C. The experiment in a line: NCI In Vivo Anticancer Drug Screen. Data for tumor model Human Lung LX-1 Xenograft (intrarenal inoculation) in NU/NU Swiss (nude) mice. The note with it: T/C endpoint: mean tumor weight change, higher T/C = larger tumour; for T/C: evaluated on day 11. The method in brief: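 Compound-treated mice carrying transplanted tumors were compared with vehicle-treated controls. Tumor size was the measured end point, and the value is the treated-group measurement divided by the control-group measurement (T/C).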
(In general: A xenograft is tissue or cells of one species grown in another, often human tumour cells in immunodeficient mice.)

Where [1] appears, read: dose: 6.25 mg/kg/injection, schedule: Q01DX010 (sc), vehicle: saline.
Where [2] appears, read: dose: 200.0 mg/kg/injection, schedule: Q01DX010 (sc), vehicle: saline with Tween-80.
Where [3] appears, read: dose: 100.0 mg/kg/injection, schedule: Q01DX010 (sc), vehicle: Klucel (hydroxypropylcellulose) (HPC).
The mark [4] stands for this setting: dose: 200.0 mg/kg/injection, schedule: Q01DX010 (sc), vehicle: Klucel (hydroxypropylcellulose) (HPC).
[5] abbreviates: dose: 50.0 mg/kg/injection, schedule: Q01DX010 (sc), vehicle: saline with Tween-80.
[6] abbreviates: dose: 100.0 mg/kg/injection, schedule: Q01DX010 (sc), vehicle: saline with Tween-80.

For the molecule `COC1/C=C/C=C(/C)Cc2cc(O)c(Cl)c(c2)N(C)C(=O)CC(OC(=O)C(C)C)C2(C)OC2C(C)C2CC1(O)NC(=O)O2` (stereo not drawn), the survivor count (dose: 8.0 mg/kg/injection, schedule: Q04DX003 (sc), vehicle: saline + alcohol) was 1 of 6 on day 11.

With `COc1cccc2c1C(=O)c1c(O)c3c(c(O)c1C2=O)C[C@@](O)(C(=O)CO)C[C@@H]3OC1CC(N)CC(C)O1` (stereo partly drawn), the survivor count (dose: 3.0 mg/kg/injection, schedule: Q01DX010 (sc), vehicle: water) is recorded as 0 of 3 on day 11; the survivor count (dose: 6.0 mg/kg/injection, schedule: Q01DX010 (sc), vehicle: water) is reported as 0 of 3 on day 11; the survivor count (dose: 12.0 mg/kg/injection, schedule: Q01DX010 (sc), vehicle: water) is recorded as 0 of 3 on day 11.

For `CC1NC(=O)C(NC(=O)c2cnc3ccccc3n2)COC(=O)C(C(C)C)N(C)C(=O)C2CSSCC(C(=O)N(C)C(C(C)C)C(=O)OCC(NC(=O)c3cnc4ccccc4n3)C(=O)NC(C)C(=O)N2C)N(C)C1=O` (stereo not drawn) (I: Quinoxaline2carbonyl-SA[NMeC][NMeV] / II: Quinoxaline2carbonyl-SA[NMeC][NMeV]; ester I:1-II:C, I:C-II:1; disulfide I:3-II:3; configuration not given here), under “dose: 800.0 micrograms/kg/injection, schedule: Q04DX003 (sc), vehicle: Klucel (hydroxypropylcellulose) (HPC)”, the survivor count is reported as 3 of 6 on day 11.

As for `CC(C)CCCCCCCCCCCCC(=O)NCC(=O)NC1C(O)C(O)C(Nc2ncnc3nc[nH]c23)OC1C(O)CO` (stereo not drawn), the survivor count (dose: 1.56 mg/kg/injection, schedule: Q01DX010 (sc), vehicle: saline) was 1 of 3 on day 11; the survivor count (dose: 3.13 mg/kg/injection, schedule: Q01DX010 (sc), vehicle: saline) is reported as 0 of 3 on day 11; the survivor count (dose: 3.2 mg/kg/injection, schedule: Q01DX010 (sc), vehicle: saline) is 0 of 3 on day 11; the survivor count under setting [1] is reported as 0 of 3 on day 11; the survivor count (dose: 12.5 mg/kg/injection, schedule: Q01DX010 (sc), vehicle: saline) is on record as 0 of 3 on day 11.

As to `CSC(SC)=C1C(=O)NC(=O)NC1=O`, the survivor count (dose: 1200.0 mg/kg/injection, schedule: Q04DX003 (sc), vehicle: suspension in saline) is 1 of 6 on day 11.

Consider `COC(=O)[C@@]12OC[C@]34[C@H]([C@@H](O)[C@@H]1O)[C@@]1(C)CC(=O)C(O)=C(C)[C@@H]1C[C@H]3OC(=O)[C@H](OC(=O)/C=C(\C)C(C)C)[C@@H]24`, for which the survivor count was 0 of 3 on day 11 (dose: 1.0 mg/kg/injection, schedule: Q01DX010 (sc), vehicle: saline + alcohol); 0 of 3 on day 11 (dose: 2.0 mg/kg/injection, schedule: Q01DX010 (sc), vehicle: saline + alcohol); 0 of 3 on day 11 (dose: 4.0 mg/kg/injection, schedule: Q01DX010 (sc), vehicle: saline + alcohol).

In the case of `O=CC=O`, the survivor count by setting is: under setting [2], 1 of 3 on day 11; (dose: 400.0 mg/kg/injection, schedule: Q01DX010 (sc), vehicle: saline with Tween-80) 0 of 3 on day 11.

Regarding `CC(=O)O[C@H]1C(=O)[C@@]2(C)[C@H]([C@H](OC(=O)c3ccccc3)[C@]3(O)C[C@H](OC(=O)[C@H](O)[C@@H](NC(=O)c4ccccc4)c4ccccc4)C(C)=C1C3(C)C)[C@]1(OC(C)=O)CO[C@@H]1C[C@@H]2O`, the T/C (dose: 50.0 mg/kg/injection, schedule: Q01DX010 (sc), vehicle: Klucel (hydroxypropylcellulose) (HPC)) was 8 [2 of 3 alive on day 11], 38, 51 % of control [2 of 3 alive on day 11]; the T/C under setting [3] is 28 and 31 % of control; the T/C under setting [4] is 13 [5 of 6 alive on day 11] and 27 % of control [2 of 3 alive on day 11]. In addition, the survivor count was 0 of 1 on day 11 and 0 of 3 on day 11 under setting [3]; 1 of 3 on day 11 under setting [4]; 0 of 3 on day 11 and 1 of 3 on day 11 (dose: 400.0 mg/kg/injection, schedule: Q01DX010 (sc), vehicle: Klucel (hydroxypropylcellulose) (HPC)).

As for `CN(C)CC(Cl)CCl` (stereo not drawn), the survivor count reads like this: (dose: 600.0 mg/kg/injection, schedule: Q04DX003 (sc), vehicle: saline) 1 of 6 on day 11; (dose: 1200.0 mg/kg/injection, schedule: Q04DX003 (sc), vehicle: saline) 0 of 6 on day 11; (dose: 2400.0 mg/kg/injection, schedule: Q04DX003 (sc), vehicle: saline) 0 of 6 on day 11.

For the molecule `C[C@@]12C(=O)OC(=O)[C@]1(C)[C@H]1CC[C@@H]2O1`, the T/C (dose: 5.0 mg/kg/injection, schedule: Q04DX003 (sc), vehicle: Klucel (hydroxypropylcellulose) (HPC)) was 127 % of control [5 of 6 alive on day 11]. Moreover, where the note is “dose: 10.0 mg/kg/injection, schedule: Q04DX003 (sc), vehicle: Klucel (hydroxypropylcellulose) (HPC)”, the survivor count is recorded as 2 of 6 on day 11.

As for `C1CCC2OCCOCCOC3CCCCC3OCCOCCOC2C1` (stereo not drawn), the T/C (dose: 37.5 mg/kg/injection, schedule: Q04DX003 (sc), vehicle: Klucel (hydroxypropylcellulose) (HPC)) was 138 % of control [4 of 6 alive on day 11]. Further, for the setting “dose: 75.0 mg/kg/injection, schedule: Q04DX003 (sc), vehicle: Klucel (hydroxypropylcellulose) (HPC)”, the survivor count was 0 of 6 on day 11.

As to `COc1ccc(C[C@H](N)C(=O)NC2C(CO)OC(n3cnc4c(N(C)C)ncnc43)C2O)cc1` (stereo partly drawn), the T/C (dose: 400.0 mg/kg/injection, schedule: Q04DX003 (sc), vehicle: saline) is 128 % of control. For the same molecule, under “dose: 800.0 mg/kg/injection, schedule: Q04DX003 (sc), vehicle: saline”, the survivor count is reported as 0 of 6 on day 11.

For `N#Cc1nc(C#N)c(Sc2ccccc2)c(Sc2ccccc2)c1Sc1ccccc1`, the T/C (dose: 25.0 mg/kg/injection, schedule: Q01DX010 (sc), vehicle: saline with Tween-80) is 142 % of control [2 of 3 alive on day 11] and the T/C under setting [5] was 142 % of control. Moreover, the survivor count under setting [6] is recorded as 1 of 3 on day 11 and the survivor count under setting [2] is 1 of 2 on day 11.

`Nc1nncs1`: the T/C under setting [1] was 134 % of control. Further, the survivor count reads like this: (dose: 25.0 mg/kg/injection, schedule: Q01DX010 (sc), vehicle: saline) 1 of 3 on day 11; (dose: 50.0 mg/kg/injection, schedule: Q01DX010 (sc), vehicle: saline) 0 of 3 on day 11.

As to `CCOC(=O)C(CC(C)C)NC(=O)C(N)Cc1ccc(N(CCCl)CCCl)cc1` (stereo not drawn), the survivor count by setting is: (dose: 60.0 mg/kg/injection, schedule: Q04DX003 (sc), vehicle: water) 3 of 6 on day 11; (dose: 120.0 mg/kg/injection, schedule: Q04DX003 (sc), vehicle: water) 0 of 6 on day 11.

On to `CSc1cc(C)[o+]c(C)c1`, for which the T/C (dose: 50.0 mg/kg/injection, schedule: Q04DX003 (sc), vehicle: Klucel (hydroxypropylcellulose) (HPC)) is 128 % of control. Where the note is “dose: 400.0 mg/kg/injection, schedule: Q04DX003 (sc), vehicle: Klucel (hydroxypropylcellulose) (HPC)”, the survivor count was 0 of 6 on day 11.

Take `C[n+]1c(/C=C\C=C\N2CCCCC2)sc2ccccc21`: the T/C (dose: 0.75 mg/kg/injection, schedule: Q04DX003 (sc), vehicle: Klucel (hydroxypropylcellulose) (HPC)) was 149 % of control. For the same molecule, the survivor count (dose: 6.0 mg/kg/injection, schedule: Q04DX003 (sc), vehicle: Klucel (hydroxypropylcellulose) (HPC)) is 0 of 6 on day 11.

Take `CN(N=O)C(N)=O`: the survivor count is reported as 0 of 3 on day 11 under setting [5] and 0 of 3 on day 11 under setting [6].

For `COC1CC(C)C(OC)C2=CC(=O)C=C(NC(=O)/C(C)=C/C=C\C(C)C(OC(N)=O)/C(C)=C\C(C)C1OC)C2=O` (stereo not drawn), the survivor count (dose: 100.0 mg/kg/injection, schedule: Q04DX003 (sc), vehicle: saline + alcohol) is on record as 0 of 5 on day 11.

As for `COc1cccc2c1C(=O)c1c(O)c3c(c(O)c1C2=O)CC(O)(C(=O)CO)CC3OC1CC(N)C(O)C(C)O1` (stereo not drawn), where the note is “dose: 96.0 mg/kg/injection, schedule: Q01DX010 (sc), vehicle: saline”, the survivor count was 1 of 3 on day 11.
